Results on two molecules are retold here after patent US20090175796A1.

This test addresses cynomolgus 24P4C12 protein (cynomolgus monkey). Briefly: FACS on Rat1 cells expressing cynomolgus 24P4C12, 10 ug/ml MAb, anti-human IgG-PE; open histogram Rat1-cynomolgus 24P4C12 cells, solid histogram control neo cells.

Where a chain is given by its changes, count along the chain named. No constants are given. Whether binding was seen depends on the method and setting. A result given as binding can be weak or reduced; the word gives no strength.

B1: Ha5-1(5)1 (antibody, V domains shown)
VH: QVQLVESGGGVVQPGRSLRLSCGASGFTFSSYGMHWVRQAPGKGLEWVAVMSYDGSKKYYTDSVKGRFTISRDNSKNTLYLQMNSLRVEDTAVYYCARDGGDYVRYYYYGMDVWGQGTTVTVSS
VL: DIQMTQSPSSLSASVGDRVTITCRARQGITYHLAWYQQRPGKVPKLLIYDTSSLQSGVPSRFSGSGSGTDFTLTISSLQPEDVATYYCQRFNSAPLTFGGGTKVEIK
B1: the binding result is “binds”.

B2: Ha5-1(5)2.1 (antibody, V domains shown)
VH: B1 VH with G23A, Y59F, V88A, Y107H
VL: DIQMTQSPSTLSASIGDRVTITCRASQGISYYLAWYQQKPGKIPKLLIYDTSSLQSGVPSRFSGSRSGTDLSLTISSLQPEDVATYYCQRYDSAPLTFGGGTKVEIK
As to B2, the binding entry was “binds”.
